The list shows a part of the results. The data scatter; read single values as rough.

By UniProt entry, the sequences of proteins in these tests, tags left out. Where a name states a change or a piece, a line headed by the entry shows the natural chain unless it says otherwise. Residues count along the entry.
UniProt Q69YQ0, 77-97: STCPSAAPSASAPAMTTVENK
UniProt Q13043: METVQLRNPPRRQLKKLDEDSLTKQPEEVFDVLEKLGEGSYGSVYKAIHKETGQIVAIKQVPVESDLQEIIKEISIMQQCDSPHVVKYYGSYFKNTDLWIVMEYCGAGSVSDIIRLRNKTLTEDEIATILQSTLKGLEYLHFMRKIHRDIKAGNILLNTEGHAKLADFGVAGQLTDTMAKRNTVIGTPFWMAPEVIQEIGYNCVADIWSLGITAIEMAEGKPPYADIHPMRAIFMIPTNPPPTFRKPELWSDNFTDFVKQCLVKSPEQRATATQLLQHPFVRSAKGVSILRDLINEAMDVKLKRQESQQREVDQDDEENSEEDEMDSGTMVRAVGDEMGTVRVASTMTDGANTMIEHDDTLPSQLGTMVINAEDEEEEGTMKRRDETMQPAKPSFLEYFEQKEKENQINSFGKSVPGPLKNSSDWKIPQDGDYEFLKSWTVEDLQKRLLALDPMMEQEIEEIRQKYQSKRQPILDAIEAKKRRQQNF
UniProt P19623, 114-135: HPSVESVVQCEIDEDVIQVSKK
UniProt Q6NVH7: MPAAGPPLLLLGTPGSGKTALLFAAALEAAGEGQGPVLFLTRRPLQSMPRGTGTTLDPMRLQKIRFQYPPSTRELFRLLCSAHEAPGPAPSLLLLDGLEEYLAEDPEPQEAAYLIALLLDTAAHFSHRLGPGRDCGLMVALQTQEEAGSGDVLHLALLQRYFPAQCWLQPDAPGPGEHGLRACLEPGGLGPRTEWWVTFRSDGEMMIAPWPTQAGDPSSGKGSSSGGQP
UniProt Q07955, whole entry, looked up: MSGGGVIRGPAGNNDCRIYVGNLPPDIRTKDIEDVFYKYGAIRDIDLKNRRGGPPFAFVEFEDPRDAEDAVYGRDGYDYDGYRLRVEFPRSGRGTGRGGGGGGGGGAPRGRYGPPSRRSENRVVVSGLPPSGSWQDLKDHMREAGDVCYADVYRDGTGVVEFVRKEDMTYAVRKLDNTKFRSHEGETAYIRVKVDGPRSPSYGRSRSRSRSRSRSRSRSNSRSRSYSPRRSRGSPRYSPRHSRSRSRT
UniProt Q13190, 23-58: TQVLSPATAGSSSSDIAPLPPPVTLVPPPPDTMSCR
UniProt O00186: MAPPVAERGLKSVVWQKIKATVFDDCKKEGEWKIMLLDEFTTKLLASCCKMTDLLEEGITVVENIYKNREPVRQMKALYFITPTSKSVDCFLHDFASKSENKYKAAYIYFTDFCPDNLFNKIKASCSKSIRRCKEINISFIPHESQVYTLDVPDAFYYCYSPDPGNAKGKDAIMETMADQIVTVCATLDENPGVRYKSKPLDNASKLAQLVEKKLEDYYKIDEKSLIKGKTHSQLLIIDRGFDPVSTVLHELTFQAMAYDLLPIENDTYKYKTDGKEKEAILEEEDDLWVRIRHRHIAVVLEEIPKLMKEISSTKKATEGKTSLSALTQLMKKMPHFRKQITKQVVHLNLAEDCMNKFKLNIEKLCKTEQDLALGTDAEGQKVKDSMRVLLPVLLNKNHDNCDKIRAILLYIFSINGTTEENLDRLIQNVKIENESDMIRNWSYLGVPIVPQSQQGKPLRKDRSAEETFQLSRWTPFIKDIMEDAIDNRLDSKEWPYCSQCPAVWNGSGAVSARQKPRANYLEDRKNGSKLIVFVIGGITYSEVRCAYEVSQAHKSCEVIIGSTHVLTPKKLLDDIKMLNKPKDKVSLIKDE
UniProt P63165, whole entry, looked up: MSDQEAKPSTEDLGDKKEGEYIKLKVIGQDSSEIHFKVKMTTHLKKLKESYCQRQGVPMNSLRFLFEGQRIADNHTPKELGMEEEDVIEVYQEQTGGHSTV
UniProt Q9GZT4: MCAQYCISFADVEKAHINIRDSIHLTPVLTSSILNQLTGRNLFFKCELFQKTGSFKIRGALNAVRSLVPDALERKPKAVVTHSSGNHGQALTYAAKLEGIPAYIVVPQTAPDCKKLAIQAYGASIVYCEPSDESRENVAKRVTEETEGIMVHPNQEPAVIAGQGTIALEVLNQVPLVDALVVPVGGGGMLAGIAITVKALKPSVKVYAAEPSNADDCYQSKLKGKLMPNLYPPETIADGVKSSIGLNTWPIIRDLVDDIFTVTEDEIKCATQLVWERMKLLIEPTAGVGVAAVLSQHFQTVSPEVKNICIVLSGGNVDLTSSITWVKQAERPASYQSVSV
UniProt Q9Y2H1: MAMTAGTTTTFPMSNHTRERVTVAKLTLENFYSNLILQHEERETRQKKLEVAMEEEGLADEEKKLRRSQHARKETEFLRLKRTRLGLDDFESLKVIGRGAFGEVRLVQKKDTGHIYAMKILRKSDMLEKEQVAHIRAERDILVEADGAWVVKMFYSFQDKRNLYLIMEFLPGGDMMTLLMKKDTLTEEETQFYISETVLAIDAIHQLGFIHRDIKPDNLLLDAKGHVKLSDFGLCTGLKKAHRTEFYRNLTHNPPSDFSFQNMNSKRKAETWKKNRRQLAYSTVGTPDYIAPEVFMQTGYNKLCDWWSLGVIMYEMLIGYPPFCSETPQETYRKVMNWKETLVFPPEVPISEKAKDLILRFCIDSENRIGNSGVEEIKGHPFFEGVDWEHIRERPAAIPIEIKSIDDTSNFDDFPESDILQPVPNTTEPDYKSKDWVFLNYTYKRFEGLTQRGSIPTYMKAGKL
UniProt Q13586, 31-50: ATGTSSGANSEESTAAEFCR
UniProt Q76I76, 793-818: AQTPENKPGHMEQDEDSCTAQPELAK
UniProt O43609: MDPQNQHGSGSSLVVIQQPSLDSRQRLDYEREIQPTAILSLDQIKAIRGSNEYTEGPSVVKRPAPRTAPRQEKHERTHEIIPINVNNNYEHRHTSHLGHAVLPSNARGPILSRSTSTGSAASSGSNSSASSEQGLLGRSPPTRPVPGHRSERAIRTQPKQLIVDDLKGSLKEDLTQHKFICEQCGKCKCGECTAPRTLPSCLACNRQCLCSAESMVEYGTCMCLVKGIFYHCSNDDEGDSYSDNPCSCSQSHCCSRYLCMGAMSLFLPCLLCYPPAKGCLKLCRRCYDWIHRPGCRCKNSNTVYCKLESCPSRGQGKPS
UniProt Q8N2I9: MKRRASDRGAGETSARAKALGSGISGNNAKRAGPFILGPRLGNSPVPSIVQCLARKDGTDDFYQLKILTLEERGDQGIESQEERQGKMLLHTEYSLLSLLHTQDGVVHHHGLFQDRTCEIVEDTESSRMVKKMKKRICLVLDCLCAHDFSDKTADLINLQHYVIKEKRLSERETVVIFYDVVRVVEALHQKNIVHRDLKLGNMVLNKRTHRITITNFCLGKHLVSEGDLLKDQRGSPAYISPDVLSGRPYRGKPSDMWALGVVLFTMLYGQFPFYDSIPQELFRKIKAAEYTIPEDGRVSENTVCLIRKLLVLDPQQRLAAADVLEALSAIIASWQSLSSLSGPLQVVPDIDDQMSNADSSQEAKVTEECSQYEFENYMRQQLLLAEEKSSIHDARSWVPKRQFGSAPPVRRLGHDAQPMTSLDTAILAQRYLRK
UniProt Q13247: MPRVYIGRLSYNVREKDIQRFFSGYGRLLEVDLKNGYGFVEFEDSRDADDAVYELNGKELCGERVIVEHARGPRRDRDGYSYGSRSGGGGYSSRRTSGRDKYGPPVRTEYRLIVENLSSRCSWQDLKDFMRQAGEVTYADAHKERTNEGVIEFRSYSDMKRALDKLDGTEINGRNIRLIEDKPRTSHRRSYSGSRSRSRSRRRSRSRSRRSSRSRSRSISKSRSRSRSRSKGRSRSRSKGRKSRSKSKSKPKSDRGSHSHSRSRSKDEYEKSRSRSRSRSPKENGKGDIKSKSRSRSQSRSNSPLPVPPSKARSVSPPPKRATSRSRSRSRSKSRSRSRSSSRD
UniProt Q7Z6B7: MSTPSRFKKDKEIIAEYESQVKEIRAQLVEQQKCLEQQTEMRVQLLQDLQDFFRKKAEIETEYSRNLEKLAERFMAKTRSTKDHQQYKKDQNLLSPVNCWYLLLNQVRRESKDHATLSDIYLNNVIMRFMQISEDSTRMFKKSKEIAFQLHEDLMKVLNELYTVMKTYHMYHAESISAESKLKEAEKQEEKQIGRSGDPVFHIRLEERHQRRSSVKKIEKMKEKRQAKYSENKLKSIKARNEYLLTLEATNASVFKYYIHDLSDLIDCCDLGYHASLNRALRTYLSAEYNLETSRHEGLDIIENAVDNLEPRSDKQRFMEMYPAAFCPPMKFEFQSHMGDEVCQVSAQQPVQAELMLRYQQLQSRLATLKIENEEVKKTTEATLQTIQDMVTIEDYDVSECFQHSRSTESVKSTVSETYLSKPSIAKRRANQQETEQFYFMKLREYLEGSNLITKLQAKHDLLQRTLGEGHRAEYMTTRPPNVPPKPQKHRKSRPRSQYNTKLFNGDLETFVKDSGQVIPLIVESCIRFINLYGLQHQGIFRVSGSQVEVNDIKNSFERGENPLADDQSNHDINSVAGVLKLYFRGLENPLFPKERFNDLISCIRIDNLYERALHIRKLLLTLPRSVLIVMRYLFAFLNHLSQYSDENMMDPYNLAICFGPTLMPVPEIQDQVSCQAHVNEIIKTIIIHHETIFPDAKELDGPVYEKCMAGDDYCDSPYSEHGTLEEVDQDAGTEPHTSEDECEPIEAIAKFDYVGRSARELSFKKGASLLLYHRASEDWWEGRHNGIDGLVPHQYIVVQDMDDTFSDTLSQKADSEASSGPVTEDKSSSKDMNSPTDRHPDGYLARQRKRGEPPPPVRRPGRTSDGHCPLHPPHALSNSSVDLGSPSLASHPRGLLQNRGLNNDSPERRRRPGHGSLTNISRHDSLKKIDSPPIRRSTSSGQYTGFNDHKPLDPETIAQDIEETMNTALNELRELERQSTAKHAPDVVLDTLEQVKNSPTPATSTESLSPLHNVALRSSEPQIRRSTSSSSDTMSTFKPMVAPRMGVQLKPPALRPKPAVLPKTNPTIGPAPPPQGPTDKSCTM
UniProt Q92797: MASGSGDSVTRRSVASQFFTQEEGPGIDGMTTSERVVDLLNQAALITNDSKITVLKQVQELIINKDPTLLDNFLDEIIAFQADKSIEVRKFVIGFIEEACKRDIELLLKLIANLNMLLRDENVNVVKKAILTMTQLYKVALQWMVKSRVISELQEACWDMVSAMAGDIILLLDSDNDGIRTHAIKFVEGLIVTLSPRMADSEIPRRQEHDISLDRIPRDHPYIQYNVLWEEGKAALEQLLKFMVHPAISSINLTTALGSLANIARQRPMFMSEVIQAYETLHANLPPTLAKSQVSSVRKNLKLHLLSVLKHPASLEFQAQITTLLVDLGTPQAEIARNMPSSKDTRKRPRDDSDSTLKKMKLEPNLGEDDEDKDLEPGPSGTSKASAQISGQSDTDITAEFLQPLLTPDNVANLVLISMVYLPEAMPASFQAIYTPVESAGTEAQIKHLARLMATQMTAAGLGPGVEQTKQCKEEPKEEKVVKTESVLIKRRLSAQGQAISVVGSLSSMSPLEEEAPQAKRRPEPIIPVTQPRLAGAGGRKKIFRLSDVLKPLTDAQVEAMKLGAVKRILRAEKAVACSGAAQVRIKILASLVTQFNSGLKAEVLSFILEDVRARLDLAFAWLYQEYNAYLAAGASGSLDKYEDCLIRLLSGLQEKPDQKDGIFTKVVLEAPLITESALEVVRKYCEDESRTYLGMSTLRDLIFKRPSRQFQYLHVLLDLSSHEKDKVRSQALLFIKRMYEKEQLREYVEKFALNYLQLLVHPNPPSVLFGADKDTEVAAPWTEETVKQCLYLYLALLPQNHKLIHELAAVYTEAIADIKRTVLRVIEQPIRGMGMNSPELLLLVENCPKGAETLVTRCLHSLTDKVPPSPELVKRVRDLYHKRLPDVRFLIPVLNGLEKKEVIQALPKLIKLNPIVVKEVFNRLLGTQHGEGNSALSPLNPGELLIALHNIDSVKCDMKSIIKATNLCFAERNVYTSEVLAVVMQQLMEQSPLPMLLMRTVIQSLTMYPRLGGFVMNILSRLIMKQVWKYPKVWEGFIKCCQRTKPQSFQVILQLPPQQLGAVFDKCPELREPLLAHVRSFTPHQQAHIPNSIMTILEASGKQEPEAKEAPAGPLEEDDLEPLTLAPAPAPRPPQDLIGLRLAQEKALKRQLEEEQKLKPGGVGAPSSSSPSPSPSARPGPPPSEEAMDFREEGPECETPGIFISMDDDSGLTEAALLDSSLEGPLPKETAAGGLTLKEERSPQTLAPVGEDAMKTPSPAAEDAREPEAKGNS
UniProt P61011: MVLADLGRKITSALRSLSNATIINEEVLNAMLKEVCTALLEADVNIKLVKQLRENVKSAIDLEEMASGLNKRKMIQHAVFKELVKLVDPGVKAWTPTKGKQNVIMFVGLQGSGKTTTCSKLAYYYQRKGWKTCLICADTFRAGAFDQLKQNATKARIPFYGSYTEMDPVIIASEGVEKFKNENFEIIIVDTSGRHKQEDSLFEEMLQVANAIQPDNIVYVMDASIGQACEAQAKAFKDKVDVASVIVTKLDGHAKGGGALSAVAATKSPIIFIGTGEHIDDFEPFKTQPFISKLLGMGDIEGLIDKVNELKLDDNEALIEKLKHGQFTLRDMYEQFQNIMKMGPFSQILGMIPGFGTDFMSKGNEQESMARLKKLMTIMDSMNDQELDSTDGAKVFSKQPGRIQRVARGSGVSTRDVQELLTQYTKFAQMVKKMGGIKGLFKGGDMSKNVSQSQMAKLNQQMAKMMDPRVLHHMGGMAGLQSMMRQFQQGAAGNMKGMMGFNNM

Compound in one test: ClCC(=O)N[C@H]1CCCc2ccccc12
The test can be described thus: log2 mean competition ratio of IA-DTB cysteine labelling (DMSO/compound) (log2 ratio); higher = stronger cysteine engagement by compound. The following applies: 50 µM; treatment time: 4 h; cell line lysate: HEK293T. The procedure:
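IA-DTB competitive cysteine chemoproteomics in HEK293T RIPA lysate. Lysates were treated with compound 29 or 30 at 50 or 200 µM for 4 h, then IA-DTB (500 µM, 1 h), trypsin-digested, NeutrAvidin-enriched and analysed by diaPASEF. Competition ratio = intensity DMSO / intensity compound (n=4 treated, n=64 DMSO); binding: mean log2 CR ≥ 1 and p ≤ 0.05 plus QC filters. Target is the cysteine site.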
On to SPECC1L C79 (UniProt Q69YQ0), for which the “log2 mean competition ratio” value stood at 0.223.

Consider STAU2 C140 (UniProt Q9NUL3), for which the “log2 mean competition ratio” value amounted to 0.524.

As for STK4 C80 (UniProt Q13043), the “log2 mean competition ratio” value was 0.15.

For SRM C123 (UniProt P19623), the “log2 mean competition ratio” value is -0.516.

As to STK24 C394, the “log2 mean competition ratio” value was determined as 0.0638.

For the target SWSAP1 C183 (UniProt Q6NVH7), the “log2 mean competition ratio” value is -0.167.

Turning to SRSF1 C16 (UniProt Q07955), the “log2 mean competition ratio” value was -0.0171.

Turning to STIP1 C26, the “log2 mean competition ratio” value was -0.0329.

For STX5 C57 (UniProt Q13190), the “log2 mean competition ratio” value came to 0.849.

On to STXBP3 C354 (UniProt O00186), for which the “log2 mean competition ratio” value was -0.318.

Staying with this test, now noted: 200 µM; treatment time: 4 h; cell line lysate: HEK293T.
Regarding SUMO1 C52 (UniProt P63165), the “log2 mean competition ratio” value was -0.0144.

Take STEAP3 C168 (UniProt Q658P3): the “log2 mean competition ratio” value amounted to 0.12.

With SRR C217 (UniProt Q9GZT4), the “log2 mean competition ratio” value was -0.0243.

Consider STXBP6 C144 (UniProt Q8NFX7), for which the “log2 mean competition ratio” value was -0.00549.

For the target STK38L C362 (UniProt Q9Y2H1), the “log2 mean competition ratio” value came to 0.0596.

For STK10 C722 (UniProt O94804), the “log2 mean competition ratio” value is -0.146.

For the target SPTBN2 C2043 (UniProt O15020), the “log2 mean competition ratio” value was -0.00406.

Take STIM1 C49 (UniProt Q13586): the “log2 mean competition ratio” value worked out at 0.298.

For the target SUCLA2 C384 (UniProt Q9P2R7), the “log2 mean competition ratio” value is -0.141.

Take SWT1 C127: the “log2 mean competition ratio” value turned out to be 0.00543.

With SSH2 C810 (UniProt Q76I76), the “log2 mean competition ratio” value was -0.302.

Take SPRY1 C305 (UniProt O43609): the “log2 mean competition ratio” value worked out at 0.229.

Consider STARD7 C362 (UniProt Q9NQZ5), for which the “log2 mean competition ratio” value was determined as 0.171.

For SPTAN1 C1930 (UniProt Q13813), the “log2 mean competition ratio” value is -0.068.

Turning to STK40 C305 (UniProt Q8N2I9), the “log2 mean competition ratio” value is 0.0353.

In the case of SRSF6 C121 (UniProt Q13247), the “log2 mean competition ratio” value was -0.0315.

As to SRGAP1 C603 (UniProt Q7Z6B7), the “log2 mean competition ratio” value is -0.165.

Turning to SPEN C2398 (UniProt Q96T58), the “log2 mean competition ratio” value is -0.215.

With SUN1 C499 (UniProt O94901), the “log2 mean competition ratio” value was 0.022.

Take SPDL1 C490 (UniProt Q96EA4): the “log2 mean competition ratio” value is -0.348.

Regarding SYMPK C578 (UniProt Q92797), the “log2 mean competition ratio” value is -0.0407.

Regarding SRBD1 C463 (UniProt Q8N5C6), the “log2 mean competition ratio” value is -0.00406.

Turning to SYNRG C1194 (UniProt Q9UMZ2), the “log2 mean competition ratio” value is -0.349.

In the case of SRP54 C36 (UniProt P61011), the “log2 mean competition ratio” value was -0.0736.

Take SRBD1 C229 (UniProt Q8N5C6): the “log2 mean competition ratio” value is -0.0406.

On to SYNE3 C51, for which the “log2 mean competition ratio” value is -0.0599.

Regarding SSX2IP C137 (UniProt Q9Y2D8), the “log2 mean competition ratio” value came out at 0.0268.

For the target SPECC1L C79 (UniProt Q69YQ0), the “log2 mean competition ratio” value was -0.198.

On to STAU2 C140 (UniProt Q9NUL3), for which the “log2 mean competition ratio” value was -0.27.

Turning to STK4 C80 (UniProt Q13043), the “log2 mean competition ratio” value is -0.324.

For SRM C123 (UniProt P19623), the “log2 mean competition ratio” value was -0.649.

Regarding STK24 C394, the “log2 mean competition ratio” value is 0.0843.

Regarding SWSAP1 C183 (UniProt Q6NVH7), the “log2 mean competition ratio” value worked out at 0.000639.

Turning to SRSF1 C16 (UniProt Q07955), the “log2 mean competition ratio” value amounted to 0.409.

As for STIP1 C26, the “log2 mean competition ratio” value was -0.244.

STX5 C57 (UniProt Q13190): the “log2 mean competition ratio” value is 0.585.

On to STXBP3 C354 (UniProt O00186), for which the “log2 mean competition ratio” value stood at 0.301.

Values taken from the supplement of paper PMC11732987, “Enantioselective OTUD7B fragment discovery through chemoproteomics screening and high-throughput optimisation” (Communications Chemistry, 2025).
